One test addresses T1, His-UHRF1-T210A (UniProt Q96T88).
T1 sequence: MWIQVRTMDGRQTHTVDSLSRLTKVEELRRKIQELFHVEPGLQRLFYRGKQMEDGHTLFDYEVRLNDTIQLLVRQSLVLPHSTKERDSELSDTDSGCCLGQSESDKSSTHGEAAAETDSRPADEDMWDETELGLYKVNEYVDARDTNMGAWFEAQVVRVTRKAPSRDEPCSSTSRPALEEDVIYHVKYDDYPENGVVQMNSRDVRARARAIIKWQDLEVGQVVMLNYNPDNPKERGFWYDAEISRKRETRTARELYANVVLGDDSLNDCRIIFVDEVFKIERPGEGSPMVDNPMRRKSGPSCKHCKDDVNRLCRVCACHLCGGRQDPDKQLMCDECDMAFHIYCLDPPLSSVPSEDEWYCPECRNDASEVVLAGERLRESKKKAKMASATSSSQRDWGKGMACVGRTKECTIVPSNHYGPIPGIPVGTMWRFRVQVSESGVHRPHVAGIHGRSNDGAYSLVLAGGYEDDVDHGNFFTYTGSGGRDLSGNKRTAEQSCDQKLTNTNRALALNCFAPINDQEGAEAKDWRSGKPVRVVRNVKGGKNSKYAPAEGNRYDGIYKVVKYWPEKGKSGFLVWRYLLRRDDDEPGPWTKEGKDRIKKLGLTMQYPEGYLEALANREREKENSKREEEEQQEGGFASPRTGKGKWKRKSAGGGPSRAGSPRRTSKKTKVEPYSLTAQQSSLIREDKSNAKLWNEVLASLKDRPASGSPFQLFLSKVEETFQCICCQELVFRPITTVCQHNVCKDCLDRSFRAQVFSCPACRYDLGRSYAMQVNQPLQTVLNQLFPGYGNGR
Kind of test: co-IP; HEK-293T co-transfected with His-UHRF1 (WT or T210A) and Flag-myr-AKT1; IP with anti-His antibody, USP7 and BTRC detected by western blotting; treatments: 10 μM MK2206 for 24 h, AKT1 knockdown. Background: In western blotting, separated proteins are transferred to a membrane and probed.

The chains behind the UniProt entries cited, without tags or fusion partners.
UniProt Q9Y297: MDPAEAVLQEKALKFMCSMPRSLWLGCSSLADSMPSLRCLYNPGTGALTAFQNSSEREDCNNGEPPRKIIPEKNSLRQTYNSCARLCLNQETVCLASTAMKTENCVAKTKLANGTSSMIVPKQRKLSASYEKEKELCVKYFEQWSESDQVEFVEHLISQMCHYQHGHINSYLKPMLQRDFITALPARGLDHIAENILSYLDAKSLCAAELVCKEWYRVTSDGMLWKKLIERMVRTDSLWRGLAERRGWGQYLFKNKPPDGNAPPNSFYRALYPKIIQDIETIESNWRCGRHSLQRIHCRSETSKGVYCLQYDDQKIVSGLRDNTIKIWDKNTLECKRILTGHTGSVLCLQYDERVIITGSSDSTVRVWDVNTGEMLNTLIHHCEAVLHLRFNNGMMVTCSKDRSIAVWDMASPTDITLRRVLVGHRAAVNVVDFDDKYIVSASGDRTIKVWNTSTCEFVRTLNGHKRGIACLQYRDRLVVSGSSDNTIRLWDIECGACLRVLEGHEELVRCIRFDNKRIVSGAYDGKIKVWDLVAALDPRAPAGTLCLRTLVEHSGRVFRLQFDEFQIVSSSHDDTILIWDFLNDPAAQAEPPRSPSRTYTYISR
UniProt Q93009: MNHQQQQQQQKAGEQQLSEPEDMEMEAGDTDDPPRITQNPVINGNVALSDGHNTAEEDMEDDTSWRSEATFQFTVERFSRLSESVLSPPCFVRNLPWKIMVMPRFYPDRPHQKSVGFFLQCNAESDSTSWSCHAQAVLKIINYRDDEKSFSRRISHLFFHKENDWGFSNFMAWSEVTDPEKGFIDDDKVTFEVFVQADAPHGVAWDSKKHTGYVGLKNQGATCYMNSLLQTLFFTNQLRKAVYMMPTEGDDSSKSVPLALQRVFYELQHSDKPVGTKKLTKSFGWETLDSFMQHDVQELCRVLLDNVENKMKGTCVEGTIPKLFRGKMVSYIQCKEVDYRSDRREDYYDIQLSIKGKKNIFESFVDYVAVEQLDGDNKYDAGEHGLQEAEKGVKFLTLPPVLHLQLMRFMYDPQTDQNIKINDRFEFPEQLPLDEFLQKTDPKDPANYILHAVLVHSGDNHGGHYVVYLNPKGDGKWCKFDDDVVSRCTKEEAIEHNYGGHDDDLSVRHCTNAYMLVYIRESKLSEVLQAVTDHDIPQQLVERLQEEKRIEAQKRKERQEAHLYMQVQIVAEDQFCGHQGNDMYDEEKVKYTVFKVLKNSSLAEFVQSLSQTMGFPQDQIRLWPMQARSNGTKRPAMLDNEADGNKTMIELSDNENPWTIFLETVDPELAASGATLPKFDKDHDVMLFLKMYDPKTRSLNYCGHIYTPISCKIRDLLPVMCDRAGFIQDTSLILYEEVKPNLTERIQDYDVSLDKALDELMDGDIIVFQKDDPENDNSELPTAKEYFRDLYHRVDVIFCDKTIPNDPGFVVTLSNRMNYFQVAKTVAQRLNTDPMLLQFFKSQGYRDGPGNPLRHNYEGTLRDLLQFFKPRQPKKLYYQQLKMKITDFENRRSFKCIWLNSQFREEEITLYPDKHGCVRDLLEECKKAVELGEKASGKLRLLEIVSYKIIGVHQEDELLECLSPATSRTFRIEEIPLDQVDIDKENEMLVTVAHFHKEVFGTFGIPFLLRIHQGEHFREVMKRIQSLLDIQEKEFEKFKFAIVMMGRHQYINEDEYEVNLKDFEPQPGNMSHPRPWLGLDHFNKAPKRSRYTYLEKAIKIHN

The target in test [1] is T2, His-UHRF1 (wild-type Ubiquitin-like containing PHD Ring Finger 1) (UniProt Q96T88).
T2 sequence: T1 sequence with A210T
The description is as above.

Where a chain is given by its changes, count along the chain named. No constants are given. Whether binding was seen depends on the method and setting. In cells and extracts the contact can be indirect. Some binding calls cover weakened binding; strength is not graded here. Where a sequence is shown, tags or fusion partners need not be part of it.

Experimental findings from paper PMC9807647 are described below.

As to “E3 ubiquitin protein ligase BTRC (from UniProt Q9Y297 1-605) (enzyme)”, the binding result (in the test with His-UHRF1-T210A; in test [1]) was “binds” throughout.
“deubiquitinase USP7 (from UniProt Q93009 1-1102) (enzyme)”: the binding entry (with His-UHRF1-T210A; in test [1]) was “binds” throughout.
